Some of the results follow.

Amino acid sequences for entries named in this document (tags omitted). A change or cut given only in a name is not applied to a line headed by its entry.
UniProt O75822, whole entry, looked up: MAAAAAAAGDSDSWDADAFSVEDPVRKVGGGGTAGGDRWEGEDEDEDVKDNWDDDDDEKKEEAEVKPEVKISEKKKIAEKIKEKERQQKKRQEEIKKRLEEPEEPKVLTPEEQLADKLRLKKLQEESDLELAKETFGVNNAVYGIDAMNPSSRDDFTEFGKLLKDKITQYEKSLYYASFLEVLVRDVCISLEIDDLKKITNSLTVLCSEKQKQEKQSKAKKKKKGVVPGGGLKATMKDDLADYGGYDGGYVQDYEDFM
UniProt Q9NRA8: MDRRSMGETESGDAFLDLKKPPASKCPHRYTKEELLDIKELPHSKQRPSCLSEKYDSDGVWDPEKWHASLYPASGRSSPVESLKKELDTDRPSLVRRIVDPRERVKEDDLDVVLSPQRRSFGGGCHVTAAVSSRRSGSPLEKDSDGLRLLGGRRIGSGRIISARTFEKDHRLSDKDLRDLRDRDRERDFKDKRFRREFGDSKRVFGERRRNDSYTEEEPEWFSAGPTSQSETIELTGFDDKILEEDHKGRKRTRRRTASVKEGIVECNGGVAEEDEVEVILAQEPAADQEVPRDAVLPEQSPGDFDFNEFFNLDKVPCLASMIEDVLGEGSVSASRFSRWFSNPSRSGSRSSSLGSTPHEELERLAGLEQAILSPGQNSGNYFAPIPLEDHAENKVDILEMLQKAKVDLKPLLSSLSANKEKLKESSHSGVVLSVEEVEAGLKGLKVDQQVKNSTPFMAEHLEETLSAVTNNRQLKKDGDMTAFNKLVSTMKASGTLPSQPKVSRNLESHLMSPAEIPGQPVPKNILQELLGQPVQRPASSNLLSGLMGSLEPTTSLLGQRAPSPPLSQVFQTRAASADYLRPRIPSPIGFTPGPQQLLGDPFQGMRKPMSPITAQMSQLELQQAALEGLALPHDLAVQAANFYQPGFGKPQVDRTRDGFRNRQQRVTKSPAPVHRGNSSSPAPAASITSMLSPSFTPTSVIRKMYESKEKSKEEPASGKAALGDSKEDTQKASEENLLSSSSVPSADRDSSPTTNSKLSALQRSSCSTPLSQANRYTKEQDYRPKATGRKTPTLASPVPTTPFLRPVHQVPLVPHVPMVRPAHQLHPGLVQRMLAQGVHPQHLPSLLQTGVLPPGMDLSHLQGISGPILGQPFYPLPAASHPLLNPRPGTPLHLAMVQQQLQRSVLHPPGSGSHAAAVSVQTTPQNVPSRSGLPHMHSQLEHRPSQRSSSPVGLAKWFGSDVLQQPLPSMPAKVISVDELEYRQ
UniProt P32519: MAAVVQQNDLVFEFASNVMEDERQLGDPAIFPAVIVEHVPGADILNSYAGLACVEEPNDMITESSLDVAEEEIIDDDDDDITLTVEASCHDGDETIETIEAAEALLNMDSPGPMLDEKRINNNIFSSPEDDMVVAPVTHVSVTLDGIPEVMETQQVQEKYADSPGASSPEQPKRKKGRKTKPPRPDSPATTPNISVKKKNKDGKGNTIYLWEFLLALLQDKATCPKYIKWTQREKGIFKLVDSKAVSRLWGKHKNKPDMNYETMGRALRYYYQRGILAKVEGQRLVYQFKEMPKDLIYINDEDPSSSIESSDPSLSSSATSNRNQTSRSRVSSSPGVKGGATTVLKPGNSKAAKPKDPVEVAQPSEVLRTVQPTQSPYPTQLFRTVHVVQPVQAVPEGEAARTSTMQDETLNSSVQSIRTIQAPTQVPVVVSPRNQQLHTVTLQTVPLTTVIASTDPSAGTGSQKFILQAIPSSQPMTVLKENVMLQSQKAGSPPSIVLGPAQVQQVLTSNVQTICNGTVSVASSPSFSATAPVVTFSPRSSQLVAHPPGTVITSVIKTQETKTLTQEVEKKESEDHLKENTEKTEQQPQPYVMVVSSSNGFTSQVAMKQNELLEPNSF
UniProt O43432, whole entry, looked up: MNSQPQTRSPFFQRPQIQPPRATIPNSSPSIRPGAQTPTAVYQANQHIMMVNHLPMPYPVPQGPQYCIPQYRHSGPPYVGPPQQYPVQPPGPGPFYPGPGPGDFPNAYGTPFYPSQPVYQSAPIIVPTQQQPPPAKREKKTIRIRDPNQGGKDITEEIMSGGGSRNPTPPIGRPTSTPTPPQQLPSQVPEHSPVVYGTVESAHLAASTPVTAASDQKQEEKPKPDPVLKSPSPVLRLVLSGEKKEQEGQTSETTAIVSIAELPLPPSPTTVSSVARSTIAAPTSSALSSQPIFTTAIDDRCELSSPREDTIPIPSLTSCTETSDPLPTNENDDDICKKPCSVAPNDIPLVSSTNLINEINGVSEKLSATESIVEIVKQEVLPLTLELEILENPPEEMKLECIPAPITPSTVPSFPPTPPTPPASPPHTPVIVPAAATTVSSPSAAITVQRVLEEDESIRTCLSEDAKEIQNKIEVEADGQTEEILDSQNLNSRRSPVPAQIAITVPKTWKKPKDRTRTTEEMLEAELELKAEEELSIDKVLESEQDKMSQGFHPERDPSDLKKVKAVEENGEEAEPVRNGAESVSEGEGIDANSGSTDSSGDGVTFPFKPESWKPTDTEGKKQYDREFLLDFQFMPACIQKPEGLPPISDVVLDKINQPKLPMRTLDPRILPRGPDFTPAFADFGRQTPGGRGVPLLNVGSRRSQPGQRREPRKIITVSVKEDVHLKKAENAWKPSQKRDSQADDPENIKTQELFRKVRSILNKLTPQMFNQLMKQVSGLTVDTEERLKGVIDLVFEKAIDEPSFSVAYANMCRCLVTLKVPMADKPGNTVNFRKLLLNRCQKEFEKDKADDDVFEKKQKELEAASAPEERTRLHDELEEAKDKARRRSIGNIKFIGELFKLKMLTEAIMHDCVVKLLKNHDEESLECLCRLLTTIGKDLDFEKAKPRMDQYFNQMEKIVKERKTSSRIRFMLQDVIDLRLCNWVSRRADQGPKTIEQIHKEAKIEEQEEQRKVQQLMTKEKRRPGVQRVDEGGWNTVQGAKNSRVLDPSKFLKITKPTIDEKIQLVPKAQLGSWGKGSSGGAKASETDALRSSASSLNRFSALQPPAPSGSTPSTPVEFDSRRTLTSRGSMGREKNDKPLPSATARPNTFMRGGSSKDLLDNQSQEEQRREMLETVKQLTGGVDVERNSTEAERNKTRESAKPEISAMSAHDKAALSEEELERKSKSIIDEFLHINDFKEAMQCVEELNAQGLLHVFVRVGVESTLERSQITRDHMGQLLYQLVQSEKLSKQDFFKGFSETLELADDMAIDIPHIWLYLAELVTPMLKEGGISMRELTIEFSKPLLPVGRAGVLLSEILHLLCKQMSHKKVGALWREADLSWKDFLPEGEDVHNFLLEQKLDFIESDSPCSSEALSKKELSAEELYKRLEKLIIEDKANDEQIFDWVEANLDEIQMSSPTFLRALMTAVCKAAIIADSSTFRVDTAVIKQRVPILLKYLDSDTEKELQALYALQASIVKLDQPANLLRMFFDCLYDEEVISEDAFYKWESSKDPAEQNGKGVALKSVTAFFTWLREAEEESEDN
UniProt Q8N6R0: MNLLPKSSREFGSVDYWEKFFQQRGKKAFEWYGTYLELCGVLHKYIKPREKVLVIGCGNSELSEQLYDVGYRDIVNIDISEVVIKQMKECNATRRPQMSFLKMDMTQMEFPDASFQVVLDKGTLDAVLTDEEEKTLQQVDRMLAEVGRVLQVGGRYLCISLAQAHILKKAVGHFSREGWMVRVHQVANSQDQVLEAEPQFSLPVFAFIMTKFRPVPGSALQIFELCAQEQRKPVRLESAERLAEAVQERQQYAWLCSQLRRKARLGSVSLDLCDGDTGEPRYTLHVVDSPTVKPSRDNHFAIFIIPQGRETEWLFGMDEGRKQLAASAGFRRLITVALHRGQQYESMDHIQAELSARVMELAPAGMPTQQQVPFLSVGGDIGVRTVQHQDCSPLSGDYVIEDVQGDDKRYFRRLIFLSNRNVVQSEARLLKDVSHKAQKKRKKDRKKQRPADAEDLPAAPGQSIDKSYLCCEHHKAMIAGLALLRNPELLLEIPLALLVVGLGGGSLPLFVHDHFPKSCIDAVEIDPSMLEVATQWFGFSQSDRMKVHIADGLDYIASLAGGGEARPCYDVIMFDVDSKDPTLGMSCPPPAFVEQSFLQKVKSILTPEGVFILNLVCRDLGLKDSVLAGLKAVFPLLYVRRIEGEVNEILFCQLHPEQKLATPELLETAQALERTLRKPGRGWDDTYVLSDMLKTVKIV
UniProt Q5NDL2: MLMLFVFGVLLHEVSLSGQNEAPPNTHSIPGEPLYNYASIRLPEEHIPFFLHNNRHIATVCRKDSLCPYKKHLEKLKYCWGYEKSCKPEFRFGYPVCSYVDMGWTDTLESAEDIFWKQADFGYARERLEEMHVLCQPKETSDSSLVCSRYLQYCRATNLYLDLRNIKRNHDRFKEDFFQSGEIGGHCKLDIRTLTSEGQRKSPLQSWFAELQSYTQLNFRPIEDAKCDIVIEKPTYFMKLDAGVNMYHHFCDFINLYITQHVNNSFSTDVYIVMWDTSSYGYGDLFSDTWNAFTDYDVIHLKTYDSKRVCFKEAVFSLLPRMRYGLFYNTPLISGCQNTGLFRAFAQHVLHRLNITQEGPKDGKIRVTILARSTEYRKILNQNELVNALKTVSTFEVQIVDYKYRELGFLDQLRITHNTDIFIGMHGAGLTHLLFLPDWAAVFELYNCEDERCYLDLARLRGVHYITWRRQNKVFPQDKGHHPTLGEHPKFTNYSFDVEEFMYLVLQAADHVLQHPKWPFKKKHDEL
UniProt Q9BW60: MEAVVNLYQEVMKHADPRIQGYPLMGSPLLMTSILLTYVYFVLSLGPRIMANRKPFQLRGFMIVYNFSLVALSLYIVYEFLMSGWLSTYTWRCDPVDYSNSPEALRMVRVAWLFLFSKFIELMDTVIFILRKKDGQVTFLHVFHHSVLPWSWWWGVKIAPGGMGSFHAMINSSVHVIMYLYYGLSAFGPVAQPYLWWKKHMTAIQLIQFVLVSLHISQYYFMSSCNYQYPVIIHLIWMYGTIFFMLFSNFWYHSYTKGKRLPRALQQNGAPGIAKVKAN
UniProt P41091, whole entry, looked up: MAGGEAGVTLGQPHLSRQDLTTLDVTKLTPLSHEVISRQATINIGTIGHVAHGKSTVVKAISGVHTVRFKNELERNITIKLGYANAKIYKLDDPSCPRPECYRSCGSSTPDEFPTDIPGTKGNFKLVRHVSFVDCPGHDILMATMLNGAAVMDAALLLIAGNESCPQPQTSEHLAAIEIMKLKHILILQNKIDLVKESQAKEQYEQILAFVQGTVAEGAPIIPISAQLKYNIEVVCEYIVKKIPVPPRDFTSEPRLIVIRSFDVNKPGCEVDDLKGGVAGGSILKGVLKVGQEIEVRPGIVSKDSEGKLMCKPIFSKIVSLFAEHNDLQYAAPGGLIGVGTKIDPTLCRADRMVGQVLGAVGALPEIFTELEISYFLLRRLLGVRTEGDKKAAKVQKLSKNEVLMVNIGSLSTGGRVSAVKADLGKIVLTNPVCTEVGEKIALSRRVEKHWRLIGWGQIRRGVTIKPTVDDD
UniProt O60573: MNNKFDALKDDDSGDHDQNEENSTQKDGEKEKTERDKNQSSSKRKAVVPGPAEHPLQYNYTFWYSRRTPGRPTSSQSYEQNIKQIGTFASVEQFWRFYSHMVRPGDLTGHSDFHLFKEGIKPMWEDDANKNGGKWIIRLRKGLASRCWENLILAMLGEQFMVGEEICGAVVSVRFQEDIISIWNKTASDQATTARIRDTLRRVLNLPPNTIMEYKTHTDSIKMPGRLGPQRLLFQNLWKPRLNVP
UniProt O75071: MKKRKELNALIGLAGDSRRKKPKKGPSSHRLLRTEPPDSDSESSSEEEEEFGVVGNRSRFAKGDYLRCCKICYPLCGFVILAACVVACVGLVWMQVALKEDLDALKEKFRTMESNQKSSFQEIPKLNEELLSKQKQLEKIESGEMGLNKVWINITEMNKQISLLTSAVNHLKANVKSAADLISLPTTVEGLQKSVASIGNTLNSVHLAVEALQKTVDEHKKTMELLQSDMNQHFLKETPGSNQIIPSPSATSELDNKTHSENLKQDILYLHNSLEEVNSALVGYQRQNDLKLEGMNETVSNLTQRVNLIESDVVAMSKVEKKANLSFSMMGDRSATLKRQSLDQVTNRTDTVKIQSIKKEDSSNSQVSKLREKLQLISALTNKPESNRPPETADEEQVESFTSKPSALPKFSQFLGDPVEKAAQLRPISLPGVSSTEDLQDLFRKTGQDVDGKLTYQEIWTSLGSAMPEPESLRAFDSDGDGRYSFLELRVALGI
UniProt Q9GZT9: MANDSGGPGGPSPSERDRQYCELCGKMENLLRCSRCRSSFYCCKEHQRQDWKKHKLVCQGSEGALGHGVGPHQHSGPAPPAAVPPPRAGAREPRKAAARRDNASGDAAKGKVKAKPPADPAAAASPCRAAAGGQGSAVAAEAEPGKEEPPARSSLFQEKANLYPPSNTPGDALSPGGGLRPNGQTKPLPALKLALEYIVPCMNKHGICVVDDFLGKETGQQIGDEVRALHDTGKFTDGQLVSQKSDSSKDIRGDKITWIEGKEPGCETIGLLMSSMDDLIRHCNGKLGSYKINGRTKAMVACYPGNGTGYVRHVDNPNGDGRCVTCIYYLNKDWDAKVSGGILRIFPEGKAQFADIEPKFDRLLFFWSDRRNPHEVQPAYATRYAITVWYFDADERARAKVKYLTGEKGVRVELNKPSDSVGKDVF

Compound in the first test: C1COCCN1CCN2C3=CC=CC=C3N=C2NC(=O)C4=CC(=CC=C4)[N+](=O)[O-] [IRAK-1-4 Inhibitor I]
In words: log2 fold change, soluble protein after heating vs DMSO (PISA); higher = thermal stabilisation; K562 cells, 10 uM, 30 min; active = over 0.2 and 3.5 SD of the protein, either way, in both replicates (recomputed). An outline of the steps: (§1)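 K562 cells (2×10^6 cells/mL) were treated with 10 μM compound for 30 min, and aliquots were heated for 3 min over 48°C-58°C. Pooled aliquots were extracted in PBS with 0.5% NP-40 at 4°C, and the supernatant after 21,000xg for 90 min was measured by TMTpro 16plex LC-MS/MS with channel sums equalised. Reported thermal stability, relative to control samples and from duplicates, is a log2 fold change.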
Consider EIF3J (UniProt O75822), for which the log2 fold change is inactive: 0.118.
On to EIF4ENIF1 isoform 3 (UniProt Q9NRA8), for which the log2 fold change was inactive: 0.003.
The same measure, in the same setting: under ELF1 (UniProt P32519) stands inactive: -0.12.

Compound in a further test: C=CC(=O)N1CCC[C@@H](n2nc(-c3ccc(Oc4ccccc4)cc3)c3c(N)ncnc32)C1 [ibrutinib]
The test is described as above. The method, boiled down: as §1
For EIF4G3 isoform 3 (UniProt O43432), the log2 fold change was inactive: 0.
Still for that read-out and setting: under EIF3J isoform 2 (UniProt O75822) stands inactive: 0.014; under EEF1AKNMT (UniProt Q8N6R0), inactive: -0.116.
On the same count and under the same terms, under EIF2AK1 (UniProt Q9BQI3) stands inactive: 0.018; under EIF2B4 (UniProt Q9UI10), inactive: -0.614.
Still for that read-out and setting: under EIF3G (UniProt K7ER90) stands inactive: -0.087; under EED, A0A5F9ZI63, inactive: -0.012; under EIF1B (UniProt O60739), inactive: 0.19.
EOGT (UniProt Q5NDL2): the log2 fold change was inactive: 0.005.
The same measure, in the same setting: to EIF2AK2 (UniProt P19525) belongs inactive: 0.182.
On the same count and under the same terms, under ELOVL1 (UniProt Q9BW60) stands inactive: -0.006; under EIF2S3 (UniProt P41091), inactive: 0.021; under EGR1 (UniProt P18146), inactive: 0.
The same measure, in the same setting: to ELL (UniProt P55199) belongs inactive: 0; to EEF1G isoform 2 (UniProt P26641), inactive: -0.083; to EIF4E2 (UniProt O60573), inactive: -0.007.
On to EFCAB14 (UniProt O75071), for which the log2 fold change is inactive: 0.043.
The same measure, in the same setting: to EGLN1 (UniProt Q9GZT9) belongs inactive: -0.054; to ENTPD6 (UniProt O75354), inactive: -0.047; to EFL1 (UniProt Q7Z2Z2), inactive: -0.019.

Values taken from the supplement of paper PMC10849652.
